pIC50: −log10 of the molar value.

The assay concerns the target T1, cholesterol-5,6-epoxide hydrolase (ChEH) (Rattus norvegicus, UniProt Q9JJ46+Q9Z2Z8).
T1 construct: from tissue; host or cells: rat liver microsomes
T1 sequence (Q9JJ46 2-230 limits assumed): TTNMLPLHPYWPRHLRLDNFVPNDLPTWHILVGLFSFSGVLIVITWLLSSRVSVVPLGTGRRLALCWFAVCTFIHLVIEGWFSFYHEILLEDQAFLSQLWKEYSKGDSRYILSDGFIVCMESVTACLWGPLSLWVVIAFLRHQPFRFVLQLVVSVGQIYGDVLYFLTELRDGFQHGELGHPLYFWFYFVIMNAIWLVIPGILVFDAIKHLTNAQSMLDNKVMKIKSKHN
T1 sequence (Q9Z2Z8 1-471): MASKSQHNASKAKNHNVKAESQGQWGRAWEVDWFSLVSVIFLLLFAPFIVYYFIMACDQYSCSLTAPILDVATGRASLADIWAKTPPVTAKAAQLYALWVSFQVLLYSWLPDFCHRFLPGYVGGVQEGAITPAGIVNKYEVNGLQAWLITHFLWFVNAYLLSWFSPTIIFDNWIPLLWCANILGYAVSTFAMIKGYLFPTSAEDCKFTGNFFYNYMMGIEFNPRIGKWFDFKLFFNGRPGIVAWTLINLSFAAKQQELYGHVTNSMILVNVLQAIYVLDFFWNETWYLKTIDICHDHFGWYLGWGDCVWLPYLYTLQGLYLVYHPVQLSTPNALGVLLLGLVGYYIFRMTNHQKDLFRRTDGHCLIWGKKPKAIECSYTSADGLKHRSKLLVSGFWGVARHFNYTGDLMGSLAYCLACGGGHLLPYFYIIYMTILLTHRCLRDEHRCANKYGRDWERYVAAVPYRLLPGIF
The assay can be described thus: Cholesterol epoxide hydrolase (ChEH) inhibition assay. It counts as biochemical.

In the case of `CC/C(=C(\c1ccccc1)c1ccc(OCCN(C)C)cc1)c1ccccc1` [tamoxifen], the negative logarithm of the IC50 (pIC50) – broadly, the negative decadic logarithm of the IC50, by convention in mol/L – is 6.91.

The values are drawn from paper PMC5874678, “Bryonolic Acid Blocks Cancer Cell Clonogenicity and Invasiveness through the Inhibition of Fatty Acid: Cholesteryl Ester Formation” (Biomedicines, 2018).
